Some results were stated once for a whole list of compounds, not compound by compound. For at least one compound, name, drawing or mass did not settle the structure. Some compounds share one range, which may span the group rather than tell each member.
System: S. aureus, E. faecalis, S. pyogenes and S. pneumoniae
Assay: Broth microdilution MIC (NCCLS), gram-positive strains
Format: cell-based
Conditions: range against some strains of S. aureus
Method: Representative bis-quinazolines were tested for antibacterial activity using the […] microdilution method to determine their minimum inhibitory concentrations (MICs). All compounds were tested using standard methods in accordance with NCCLS guidelines (National Committee for Clinical Laboratory Standards. 2003. Methods for dilution antimicrobial susceptibility testing for bacteria that grow aerobically. Approved Standard M-7 A-6, NCCLS, Wayne, Pa.). The bacterial strains used in the susceptibility tests were obtained from the American Type Culture Collection (ATCC) and included resistant phenotypes such as oxacillin-resistant S. aureus (ORSA) and vancomycin-resistant enterococci (VRE). The minimum bactericidal concentrations (MBCs) were determined for selected organisms. The effect of protein binding on the antibacterial activity of representative bis-quinazolines were determined by conducting MIC tests in the presence of human serum.

COc1cc(OC)c2nc(Nc3nc(O)c4c5c(ccc4n3)OCO5)nc(C)c2c1.Cl [Example 131, 7-(6,8-Dimethoxy-4-methyl-quinazolin-2-ylamino)-1,3-dioxa-6.8-diaza-cyclopenta[a]naphthalen-9-ol HCl salt] showed an MIC of less than 0.06 to 16 µg/mL.

Reference: patent publication US20050124562A1, “Bis-quinazoline compounds for the treatment of bacterial infections” (priority 2003, published 2005)
